Experimental data published in paper PMC2948036.
Results are given in words; binding and its absence hold for the method and conditions named. Binding seen in cells or lysates may run through a third protein. Some binding calls cover weakened binding; strength is not graded here.

Target: T1, rat CD1d heavy chain, endogenous in rat thymocytes (rat (endogenous in thymocytes)) (UniProt Q63493)
T1 sequence (chain, cell surface proteins biotinylated with Sulfo-NHS-LC-Biotin before lysis): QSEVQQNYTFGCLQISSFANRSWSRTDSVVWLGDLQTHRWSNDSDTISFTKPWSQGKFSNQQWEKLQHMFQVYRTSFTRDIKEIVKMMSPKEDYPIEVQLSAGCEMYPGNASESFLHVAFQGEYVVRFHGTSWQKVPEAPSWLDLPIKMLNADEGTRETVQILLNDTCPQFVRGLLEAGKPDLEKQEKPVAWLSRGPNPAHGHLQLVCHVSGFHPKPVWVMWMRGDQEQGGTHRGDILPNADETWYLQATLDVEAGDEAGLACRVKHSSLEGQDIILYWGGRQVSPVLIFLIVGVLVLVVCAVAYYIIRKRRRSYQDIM
Assay: co-IP; surface-biotinylated transductants or thymocytes lysed in 50 mM Tris pH 7.4, 150 mM NaCl, 0.25% Na-deoxycholate, 1 mM EDTA, 1% NP40; lysates incubated overnight with mAb WTH-1 or WTH-2 covalently linked to Protein A Sepharose pre-coated with rabbit anti-mouse IgG; reducing 15% SDS-PAGE, blot developed with streptavidin-HRP

B1: β2-microglobulin of rat thymocytes (protein, UniProt P07151 21-119)
chain: IQKTPQIQVYSRHPPENGKPNFLNCYVSQFHPPQIEIELLKNGKKIPNIEMSDLSFSKDWSFYILAHTEFTPTETDVYACRVKHVTLKEPKTVTWDRDM
modifications: cell surface proteins biotinylated with Sulfo-NHS-LC-Biotin before lysis
B1 was tested, and the binding was “binds”.
